From PMC7057099
Numbering of substitutions follows the chain as printed. These are yes or no findings as the source states them, for the method shown. Binding seen in cells or lysates may run through a third protein. Some entries that bind do so weakly or less than the wild type. Where a sequence is shown, tags or fusion partners need not be part of it.

Chains of the proteins cited; added tags and fusions are not shown. Lines headed by an entry give the natural chain unless they say otherwise; changes in a name come on top. A line that says so, or that is headed by a name, gives the form on record, which may keep a tag or linker.
GATA4 p.P394T variant, HA-tagged (P43694-1, form named): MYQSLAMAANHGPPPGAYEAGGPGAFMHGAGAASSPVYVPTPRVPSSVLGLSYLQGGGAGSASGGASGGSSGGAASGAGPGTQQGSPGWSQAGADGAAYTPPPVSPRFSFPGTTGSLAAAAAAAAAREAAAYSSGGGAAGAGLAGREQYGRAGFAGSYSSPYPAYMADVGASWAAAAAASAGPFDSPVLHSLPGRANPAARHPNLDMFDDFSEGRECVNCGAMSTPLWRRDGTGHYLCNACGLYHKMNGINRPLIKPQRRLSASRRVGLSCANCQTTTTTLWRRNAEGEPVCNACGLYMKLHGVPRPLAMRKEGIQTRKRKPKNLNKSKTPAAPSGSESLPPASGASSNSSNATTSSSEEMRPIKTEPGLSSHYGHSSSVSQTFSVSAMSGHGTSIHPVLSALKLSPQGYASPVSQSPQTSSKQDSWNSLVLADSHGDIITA

Legend:
[1] = target: T1, Friend of GATA 2 protein (FOG2, ZFPM2), wild-type, Myc-DDK-tagged (human) (UniProt Q8WW38); experiment: co-IP; HEK293-T cells co-transfected with GATA4-HA (wild-type or variant) and ZFPM2-Myc-DDK; Pierce IP lysis buffer; IP with rabbit anti-FLAG overnight at 4°C, protein A/G plus agarose, PBS washes; Western blot of the IP with anti-GATA4
T1 sequence: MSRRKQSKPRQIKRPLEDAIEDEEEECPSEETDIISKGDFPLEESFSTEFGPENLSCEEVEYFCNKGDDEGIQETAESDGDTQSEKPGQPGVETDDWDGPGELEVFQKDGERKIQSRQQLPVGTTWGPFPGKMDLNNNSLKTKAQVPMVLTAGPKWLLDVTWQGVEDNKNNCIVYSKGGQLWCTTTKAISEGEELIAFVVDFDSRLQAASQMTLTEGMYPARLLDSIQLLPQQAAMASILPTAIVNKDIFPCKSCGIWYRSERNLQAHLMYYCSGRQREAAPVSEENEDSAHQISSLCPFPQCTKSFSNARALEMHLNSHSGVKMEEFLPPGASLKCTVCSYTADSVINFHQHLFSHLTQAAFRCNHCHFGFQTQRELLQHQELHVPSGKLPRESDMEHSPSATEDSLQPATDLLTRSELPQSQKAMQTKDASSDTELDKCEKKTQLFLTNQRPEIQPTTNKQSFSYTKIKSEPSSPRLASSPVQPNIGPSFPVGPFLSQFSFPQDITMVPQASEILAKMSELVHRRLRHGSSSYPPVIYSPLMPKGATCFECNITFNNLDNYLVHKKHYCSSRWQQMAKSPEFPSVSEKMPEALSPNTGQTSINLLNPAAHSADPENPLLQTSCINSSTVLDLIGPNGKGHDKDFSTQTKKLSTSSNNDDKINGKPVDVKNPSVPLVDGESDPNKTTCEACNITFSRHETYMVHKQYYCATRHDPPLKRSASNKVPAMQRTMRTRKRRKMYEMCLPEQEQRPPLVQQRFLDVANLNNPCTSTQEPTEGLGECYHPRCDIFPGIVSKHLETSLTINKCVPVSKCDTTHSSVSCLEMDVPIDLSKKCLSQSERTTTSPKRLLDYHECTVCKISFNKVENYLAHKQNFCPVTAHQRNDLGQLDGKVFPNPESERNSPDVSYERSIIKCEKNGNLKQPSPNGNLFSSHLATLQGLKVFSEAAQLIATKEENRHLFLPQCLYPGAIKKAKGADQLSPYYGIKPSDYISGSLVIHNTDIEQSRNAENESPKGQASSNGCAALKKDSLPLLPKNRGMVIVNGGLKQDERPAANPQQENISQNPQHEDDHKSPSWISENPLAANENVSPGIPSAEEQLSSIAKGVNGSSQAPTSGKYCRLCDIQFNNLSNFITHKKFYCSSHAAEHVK

[2] = target: T2, ZFPM2 (FOG2) p.L335V variant, Myc-DDK-tagged (human) (UniProt Q8WW38); experiment: as above
T2 sequence: T1 sequence with L335V

In the case of “GATA4 p.P394T variant, HA-tagged (from UniProt P43694-1 1-442)”, the binding [1] is reported as “binds” and the binding [2] is reported as “binds”.
